The list shows a part of the results.

The chains behind the UniProt entries cited, without tags or fusion partners.
UniProt Q0JBA9, entry or part of it: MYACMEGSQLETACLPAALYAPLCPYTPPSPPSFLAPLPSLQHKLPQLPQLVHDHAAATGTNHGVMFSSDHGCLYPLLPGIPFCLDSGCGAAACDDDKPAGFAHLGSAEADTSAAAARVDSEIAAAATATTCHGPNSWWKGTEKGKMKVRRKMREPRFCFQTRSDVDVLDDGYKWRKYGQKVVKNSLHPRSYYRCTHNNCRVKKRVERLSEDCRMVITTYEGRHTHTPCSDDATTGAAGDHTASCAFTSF

For the test, the target named is OsWRKY34 (Oryza sativa, UniProt Q0JBA9 1-250). As to the kind of experiment: protein-binding microarray (RPBM); PBS, 2% BSA, 51.3 ng/ul salmon testes DNA, 50 uM zinc acetate, 200 nM TF, 25 C, 1 h; high values mean tight binding. The following applies: protein: recombinant; tags: N-terminal polyhistidine and DsRed monomer fusion (pET32a); label: CyDye5-dUTP incorporated in the synthesized complementary strand; 3' TTTTT single-stranded linker to array surface; dsDNA, one strand shown. Put shortly: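 Using Ni–NTA, transcription factors fused N-terminally to polyhistidine and DsRed were purified after expression in E. coli BL21-CodonPlus. These were incubated at 200 nM with a blocked, double-stranded custom Agilent array for 1 h at 25 °C in a buffer containing 50 µM zinc acetate, and the array was washed. The binding signal is per-feature fluorescence intensity (arbitrary units) on an Axon 4000B scanner.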
With “ACTTCTGTCGATCGCCGCGGCACACCATCAATCACACGTACGGAGTCACCTAGTGCAG”, the binding signal is 8090 fluorescence intensity (a.u.).
The value for “CTCTCCTCCACATCATCACTCAATCCAATGTGGCATTCTTCGGAGTCACCTAGTGCAG” was 8150 fluorescence intensity (a.u.); that for “TTCCGTACTTTGAACCATCTCCGTACATACTTGTAAAGTTCGGAGTCACCTAGTGCAG” was 8500 fluorescence intensity (a.u.); that for “GCAAATTAGGTAGTTCATGCAAATGCTTCCATGCCTTCGTCGGAGTCACCTAGTGCAG” was 8380 fluorescence intensity (a.u.).
With “TCTAGCGTTTGACCGTCCGTCTTATATGAAATTTTTTTGTCGGAGTCACCTAGTGCAG” the figure was 8540 fluorescence intensity (a.u.).
The value for “GGGAAACGGAAACCTAGCCGCCACGCTAAGCATCTCGTCTCGGAGTCACCTAGTGCAG” was 8110 fluorescence intensity (a.u.).
On to “ATCGTCGTCTCTCCACCTCTCGCGTTAGCTACTATATATCCGGAGTCACCTAGTGCAG”, for which the binding signal was 11200 fluorescence intensity (a.u.).
Consider “GATTAATATTCTATGCGTGACTTGTCTTTTTAATTTTTTTCGGAGTCACCTAGTGCAG”, for which the binding signal is 8950 fluorescence intensity (a.u.).
With “ATTGCCACCTATAAAATGGGCTTAGGTTAGATGTTGTGTTCGGAGTCACCTAGTGCAG” the figure was 8940 fluorescence intensity (a.u.).
In the case of “TCCACTGCTTGCTGTCGATCGAGTGGAAGAGGCGGGCGGGCGGAGTCACCTAGTGCAG”, the binding signal was 10200 fluorescence intensity (a.u.).
Take “GGGCTCCTCAATATATGGGCTTGAACATTTTTCTCATTTTCGGAGTCACCTAGTGCAG”: the binding signal was 8140 fluorescence intensity (a.u.).
“TCTGTACTTTATTTTTATGGTTGGATGCAAATATAAGGGGCGGAGTCACCTAGTGCAG”: the binding signal was 11700 fluorescence intensity (a.u.).
With “CATCTTTTGCATTTGTACTAATATGTTATGTTTGAGTATACGGAGTCACCTAGTGCAG” the figure was 8770 fluorescence intensity (a.u.); with “GTAGCTGAAGTGAGTGGGGAGTTGACTTGGGAAGATGACTCGGAGTCACCTAGTGCAG”, 9910 fluorescence intensity (a.u.); with “AACCAATTCAGTCAGATACATCGCGTACCTTTCACATTATCGGAGTCACCTAGTGCAG”, 9700 fluorescence intensity (a.u.).
For “GGTGTATTTTATCGGCATACTCAATATACACGAAGGCAAACGGAGTCACCTAGTGCAG”, the binding signal was 8080 fluorescence intensity (a.u.).
Consider “CATGGTATTTGTCTCTTTTAATTTTCACCCTCTGGGTTGCCGGAGTCACCTAGTGCAG”, for which the binding signal is 12700 fluorescence intensity (a.u.).
On to “AAATACAGGATATAAACGGACGTGTGGTCTCGTGGATCGGCGGAGTCACCTAGTGCAG”, for which the binding signal is 10700 fluorescence intensity (a.u.).
With “AACATATGAAGTTCTGACTCTGCTGTGTTTTACTTCATATCGGAGTCACCTAGTGCAG” the figure was 8510 fluorescence intensity (a.u.); with “AATGGTGTTGTTCTGTTTCTACCTTTTATTCAGGTGCTCGCGGAGTCACCTAGTGCAG”, 16200 fluorescence intensity (a.u.).
Turning to “ACACGATGGCCATCCTTCATCAGATTCTAGTGCGATCATCCGGAGTCACCTAGTGCAG”, the binding signal was 8290 fluorescence intensity (a.u.).
Consider “CTTTAATGCTTATCACAAGAACTGGTGGTATATGTGACTCCGGAGTCACCTAGTGCAG”, for which the binding signal is 9340 fluorescence intensity (a.u.).
With “GGATTGGGATTTTTGGGAGGGGAGGAGAGGAACCCTAATCCGGAGTCACCTAGTGCAG” the figure was 10600 fluorescence intensity (a.u.).
As to “GTGAAGCTGACATGTGGGTTTTATAGGTTTTTTTTTTCAGCGGAGTCACCTAGTGCAG”, the binding signal was 11000 fluorescence intensity (a.u.).
With “TTTACACTTCAATTCTTATCAGAATCCTGTCTTTTTTATACGGAGTCACCTAGTGCAG” the figure was 8180 fluorescence intensity (a.u.); with “ACTCCCTTGCTTTTTCTCGCTATCAATCACAATAATCCAACGGAGTCACCTAGTGCAG”, 9590 fluorescence intensity (a.u.); with “GTTGTAATGGGTACTTTGTGATCTCATCCGTTGGAATAACCGGAGTCACCTAGTGCAG”, 8450 fluorescence intensity (a.u.).
For the sequence “CTTTCTTTGTTTTTTTAAAATATGTTTATAGCTAGCTTATCGGAGTCACCTAGTGCAG”, the binding signal is 8930 fluorescence intensity (a.u.).
In the case of “GTCGCTTTACTAATTATTACTACTCATGCTTACTTTTTACCGGAGTCACCTAGTGCAG”, the binding signal was 13200 fluorescence intensity (a.u.).
The value for “CGGCCTGTACGATTTACCTGTTGGTTCGGTCGCTCCGTTCCGGAGTCACCTAGTGCAG” was 8840 fluorescence intensity (a.u.).
For “AAATATATGATCCATCACATCCTATAATATATTCACTCTCCGGAGTCACCTAGTGCAG”, the binding signal is 8590 fluorescence intensity (a.u.).
The value for “AGCAACTGGGTGGGGCGACGACGGGGATGGGTGGCAAACTCGGAGTCACCTAGTGCAG” was 12800 fluorescence intensity (a.u.); that for “TTTTTATGTGTACTTTTATCTATAACTTATTAGAGACTTGCGGAGTCACCTAGTGCAG” was 14100 fluorescence intensity (a.u.).
The value for “CCTGCTTAAACCCTCTATTCGTCTTCTCCAAGCAAAACCACGGAGTCACCTAGTGCAG” was 8380 fluorescence intensity (a.u.); that for “AGAGTTCTTTCACTGTCTCTTGTCTCTTTCGTTGATAGTCCGGAGTCACCTAGTGCAG” was 8960 fluorescence intensity (a.u.); that for “TGCGGCGGGCGGGCGAGACGACGAGCGATCGAATATCCTCCGGAGTCACCTAGTGCAG” was 8020 fluorescence intensity (a.u.).
On to “TACTTGCACCCATCATCCACCACATCCATCTGATATAACTCGGAGTCACCTAGTGCAG”, for which the binding signal is 9680 fluorescence intensity (a.u.).
The value for “AGTGTAACTACATTCTACTCAATCTCCTTATTTGTCGTGCCGGAGTCACCTAGTGCAG” was 8240 fluorescence intensity (a.u.).
With “TCTTTTTTCTCTTCTTCTTCTCCTCCATTCCATTCCATTTCGGAGTCACCTAGTGCAG” the figure was 8930 fluorescence intensity (a.u.); with “AATCCAGCTTTGGCTTATAGTTCATTTTCTAGATTCTACACGGAGTCACCTAGTGCAG”, 12700 fluorescence intensity (a.u.); with “AACGTTTTAATTAAGCTTTCGGTTTTGTCCACTACCCCACCGGAGTCACCTAGTGCAG”, 9570 fluorescence intensity (a.u.).
With “CAACTTTGTCTCCGTGCCTTCCGGGCGTGCTCCTCAATTTCGGAGTCACCTAGTGCAG” the figure was 8350 fluorescence intensity (a.u.).
